{"source": "patent US20060063794A1", "about": "“Method of attenuating graft rejection” (Fujisawa Pharmaceutical Co., Ltd., priority 2004, published 2006)", "origin": "cited, not measured here", "details": "Sirolimus 1 mg/day in addition to Tacrolimus and corticosteroid; cited from earlier work", "note": "At least one compound was matched to its structure with a doubt left."}
{"molecule": "CO[C@H]1C[C@@H]2CC[C@@H](C)[C@@](O)(O2)C(=O)C(=O)N2CCCC[C@H]2C(=O)O[C@H]([C@H](C)C[C@@H]2CC[C@@H](O)[C@H](OC)C2)CC(=O)[C@H](C)/C=C(\\C)[C@@H](O)[C@@H](OC)C(=O)[C@H](C)C[C@H](C)/C=C/C=C/C=C/1C", "note": "[Sirolimus]", "values": [{"measurement": "AR rate", "value": 8.0, "unit": "%"}]}
